Measurements as given in patent US20240011017A1.
No constants are given. Whether binding was seen depends on the method and setting. Some entries that bind do so weakly or less than the wild type.

By UniProt entry, the sequences of proteins in these tests, tags left out. Where a name states a change or a piece, a line headed by the entry shows the natural chain unless it says otherwise. Residues count along the entry.
UniProt P13290: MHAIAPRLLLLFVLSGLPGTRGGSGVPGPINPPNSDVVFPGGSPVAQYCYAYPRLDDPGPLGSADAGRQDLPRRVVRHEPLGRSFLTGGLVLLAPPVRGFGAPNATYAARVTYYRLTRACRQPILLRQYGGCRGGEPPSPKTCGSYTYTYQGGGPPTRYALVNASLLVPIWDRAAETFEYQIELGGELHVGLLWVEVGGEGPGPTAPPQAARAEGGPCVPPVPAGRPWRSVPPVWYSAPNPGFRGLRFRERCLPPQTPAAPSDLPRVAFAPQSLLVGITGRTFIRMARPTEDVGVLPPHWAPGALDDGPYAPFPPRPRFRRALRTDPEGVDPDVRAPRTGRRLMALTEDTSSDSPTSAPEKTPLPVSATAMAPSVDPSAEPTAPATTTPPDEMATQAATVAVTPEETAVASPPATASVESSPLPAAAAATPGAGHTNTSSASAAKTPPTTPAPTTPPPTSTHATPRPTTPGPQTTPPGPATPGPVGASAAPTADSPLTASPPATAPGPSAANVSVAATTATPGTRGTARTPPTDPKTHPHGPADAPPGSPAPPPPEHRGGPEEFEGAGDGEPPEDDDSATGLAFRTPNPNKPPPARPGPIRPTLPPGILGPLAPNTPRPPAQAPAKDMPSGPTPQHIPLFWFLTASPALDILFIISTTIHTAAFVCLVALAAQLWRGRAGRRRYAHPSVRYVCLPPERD
UniProt Q6UXZ4, residues 33-379: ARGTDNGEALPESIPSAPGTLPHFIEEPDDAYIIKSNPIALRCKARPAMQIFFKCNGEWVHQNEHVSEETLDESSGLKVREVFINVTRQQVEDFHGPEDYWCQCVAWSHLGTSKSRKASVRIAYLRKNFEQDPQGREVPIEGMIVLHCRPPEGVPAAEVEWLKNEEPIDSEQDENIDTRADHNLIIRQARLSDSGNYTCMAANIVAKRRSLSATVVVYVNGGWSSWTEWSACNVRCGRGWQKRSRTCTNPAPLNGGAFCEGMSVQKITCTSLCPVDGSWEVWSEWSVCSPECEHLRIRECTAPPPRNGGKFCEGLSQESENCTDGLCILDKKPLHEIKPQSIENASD

Assays:
[1] = target: HSV-2 protein gG as used in the Cos7 cell-based immunofluorescence validation (Herpes simplex virus 2) (UniProt P13290); experiment: Cos7 cell-based immunofluorescence, FIG. 20
[2] = target: HSV-2 protein gG as used in the Cos7 cell-based immunofluorescence validation (Herpes simplex virus 2) (UniProt P13290); experiment: Cos7 cell-based immunofluorescence validation (FIG. 20), UNC5D-Fc

“UNC5D-Fc (from UniProt Q6UXZ4 33-379) (Fc fusion)” was tested, and the binding [1] was “binds” and the binding [2] was “binds”.
